# Results taken from PubChem BioAssay AID1671190 (National Center for Advancing Translational Sciences (NCATS), 2021).
# The chains behind the UniProt entries cited, without tags or fusion partners.
# UniProt P18054, whole entry, looked up: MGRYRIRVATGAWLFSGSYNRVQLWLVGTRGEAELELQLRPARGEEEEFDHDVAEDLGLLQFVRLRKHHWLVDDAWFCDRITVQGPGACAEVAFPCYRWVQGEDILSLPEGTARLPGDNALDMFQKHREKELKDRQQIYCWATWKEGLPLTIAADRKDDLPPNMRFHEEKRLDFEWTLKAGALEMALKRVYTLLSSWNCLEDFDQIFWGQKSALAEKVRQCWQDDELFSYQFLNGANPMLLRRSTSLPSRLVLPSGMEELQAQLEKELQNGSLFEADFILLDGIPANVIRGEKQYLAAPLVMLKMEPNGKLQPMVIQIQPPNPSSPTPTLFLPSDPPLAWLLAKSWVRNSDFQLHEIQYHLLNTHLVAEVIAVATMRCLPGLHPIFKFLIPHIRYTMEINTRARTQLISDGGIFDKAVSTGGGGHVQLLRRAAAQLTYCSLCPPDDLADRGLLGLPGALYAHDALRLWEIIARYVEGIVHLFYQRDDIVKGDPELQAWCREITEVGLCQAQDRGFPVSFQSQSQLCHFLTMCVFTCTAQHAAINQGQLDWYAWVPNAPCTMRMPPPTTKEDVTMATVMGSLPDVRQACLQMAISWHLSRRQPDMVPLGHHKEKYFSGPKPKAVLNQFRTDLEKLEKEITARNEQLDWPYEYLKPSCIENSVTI
# Out of some 580,000 compounds screened, about 6,100 (1.1%) were called active. Inconclusive results, whose numbers are uncertain, are shown with a selection of clear calls. Calls follow the shape of the dose curve; as a rule, active = well fitted inhibition curve with a large enough effect; inconclusive = small, poorly fitted or top-dose-only effect, or another doubt; inactive = no such curve, though single readings can be large or run the other way. Where the call is inconclusive, the potency comes from a doubtful curve fit.
# Biological target: Polyunsaturated fatty acid lipoxygenase ALOX12 (Homo sapiens) (UniProt P18054)
# Assay: Primary qHTS assay for inhibitors of human arachidonate 12S-lipoxygenase (ALOX12): Round 2
# Conditions: purified 12hLO, xylenol orange hydroperoxide absorbance; series mostly up to 108 µM
# Outline: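 Purified human 12hLO at 150 nM in 25 mM Hepes, 0.01% Triton X-100, pH 7.0, preincubated 15 min at room temperature with compound. Reaction started with 40 uM arachidonic acid, 30 min at room temperature. Hydroperoxide measured by Fe-xylenol orange, 573/405 nm absorbance ratio.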
# Potency is read from the fitted curve at half-maximal effect.
row,SMILES,Potency
1,COC(=O)c1cc(-c2cccc(Cl)c2)nc2onc(C)c12,"inconclusive: 22.4 µM [inhibitor, partial curve, poor fit]"
2,O=[N+]([O-])c1ccc(CSC2=NCCS2)cc1,"inconclusive: 70.8 µM [inhibitor, single point]"
3,COC(=O)c1cccc(NC(=O)NCc2c(-n3cccc3)sc3c2CCN(C)C3)c1,"inconclusive: 35.5 µM [inhibitor, partial curve, poor fit]"
4,COc1cc(C)c(COc2ncnc3ccccc23)cc1OC,"inconclusive: 100 µM [inhibitor, partial curve, poor fit]"
5,Cc1ccc(-c2nc(C)c(CCNC(=O)c3cccs3)s2)cc1,"inconclusive: 141 µM [inhibitor, partial curve, poor fit]"
6,Clc1ccccc1C1=Nn2c(nnc2-c2ccncc2)SC1,inactive
7,COc1cc2c(cc1NC(=S)NC(=O)/C=C/c1ccco1)oc1ccccc12,"inconclusive: 35.5 µM [inhibitor, partial curve]"
8,COc1ccc(OCC(=O)NC2CCSc3ccccc32)cc1 (stereo not given),"inconclusive: 39.8 µM [inhibitor, single point]"
9,COc1cc(/C=N/NS(=O)(=O)c2ccc(Br)cc2)ccc1O,"inconclusive: 112 µM [inhibitor, single point]"
10,Cc1cnc(CNc2ncncc2-c2ccc3c(c2)OCO3)cn1,inactive
11,COc1ccc(-c2nn3c(C4CCCCC4)nnc3s2)cc1OC,"inconclusive: 141 µM [inhibitor, partial curve, poor fit]"
12,COc1ccc(CNc2ncnc3ccc(-c4ccc(N(C)C)cc4)cc23)c(OC)c1,inactive
13,CCN1c2cc(C(=O)Nc3cccc(C(F)(F)F)c3)ccc2C(=O)N2CCCC21 (stereo not given),"inconclusive: 2.82 µM [inhibitor, full curve, poor fit]"
14,COc1ccc(/C(O)=C2/C(=O)C(=O)N(c3ncccn3)C2c2ccc(F)cc2)cc1 (stereo not given),"inconclusive: 126 µM [inhibitor, partial curve, poor fit]"
15,COc1ccc(CCNC(=O)CS(=O)(=O)c2cn(CC(=O)N(C(C)C)C(C)C)c3ccccc23)cc1OC,"inconclusive: 50.1 µM [inhibitor, partial curve, poor fit]"
16,COc1ccc(C(=O)C[n+]2cccc3cc(C)ccc32)cc1,"inconclusive: 39.8 µM [inhibitor, partial curve, poor fit]"
17,O=C(CSc1nnc(-c2ccco2)n1Cc1ccccc1)c1ccc(F)cc1,"inconclusive: 25.1 µM [inhibitor, partial curve]"
18,COc1ccc(-c2csc(NC(=O)C(CC(=O)O)N3CCOCC3)n2)cc1 (stereo not given),inactive
19,Cc1ccc(CCNC(=O)c2ccc3c(c2)N(C)C2CCCCN2C3=O)cc1 (stereo not given),inactive
20,CSc1nc(C)c(CCC(=O)NC(C)c2ccc(F)c(F)c2)c(C)n1 (stereo not given),"inconclusive: 39.8 µM [inhibitor, partial curve, poor fit]"

row,SMILES,Potency
1,COc1ccc(-c2noc(-c3nnn4c3COC(c3ccc(C)cc3C)C4)n2)cc1OC (stereo not given),inactive
2,O=C(c1nnn2cc(-c3ccccc3)[nH]c(=O)c12)N1CCCCCC1,"inconclusive: 7.94 µM [inhibitor, partial curve, poor fit]"
3,COC(=O)C1C(C(=O)OC)C2(OC(c3ccccc3)=CC2=O)C12OC(c1ccccc1)=CC2=O (stereo not given),"inconclusive: 50.1 µM [inhibitor, partial curve, poor fit]"
4,CC1=C(C(=O)OCc2ccccc2)C(c2ccc(C(C)(C)C)cc2)NC(=O)N1CCCCCC(=O)O (stereo not given),active: 25.1 µM
5,CN1CCN(CC(=O)C23CC4CC(CC(C4)C2)C3)CC1,"inconclusive: 15.8 µM [inhibitor, partial curve, poor fit]"
6,O=c1[nH]c(C2CC2)nc2sc3c(c12)CCCC3,inactive
7,CCOC(=O)CSc1nc2c(c(=O)[nH]c(=O)n2C)n1CCC(C)C,inactive
8,c1ccc(CNc2nc3ccccc3[nH]2)cc1,inactive
9,CCc1cccc(NC(=O)c2cc3c(=O)n(Cc4ccccc4)ccc3nc2C)c1,"inconclusive: 50.1 µM [inhibitor, partial curve, poor fit]"
10,CCN1C(c2ccc(F)cc2)=CS/C1=C(/C#N)c1nnc2n1-c1ccccc1SC2,"inconclusive: 50.1 µM [inhibitor, partial curve, poor fit]"
11,COc1ccc(N2CC(C(=O)Nc3nnc(SCC(=O)NCC4CCCO4)s3)CC2=O)cc1 (stereo not given),"inconclusive: 39.8 µM [inhibitor, partial curve, poor fit]"
12,COC(=O)C(Br)(C(=O)OC)C(OC)(C(=O)OC)C(=O)OC,active: 0.708 µM
13,O=C(O)c1cc(/C=C/c2ccc(N3CCOCC3)c([N+](=O)[O-])c2)nc2ccccc12,"inconclusive: 5.62 µM [inhibitor, full curve, poor fit]"
14,CC(C)c1ccc(NC(=O)C2CCN(C(=O)c3ccc(F)cc3)CC2)cc1,"inconclusive: 56.2 µM [inhibitor, partial curve, poor fit]"
15,CC(=O)Nc1ccc2nc(CN3CCN(Cc4ccc(F)cc4)C(CCO)C3)ccc2c1 (stereo not given),"inconclusive: 8.91 µM [inhibitor, partial curve, poor fit]"
16,Cc1ccc(C(=O)NC(=S)N2CCCCCC2)cc1,"inconclusive: 35.5 µM [inhibitor, partial curve, poor fit]"
17,CC(C)(C)c1ccc(OCCCC(=O)NNC(=O)c2ccccc2O)cc1,"inconclusive: 44.7 µM [inhibitor, partial curve, poor fit]"
18,Cc1ccc2nc(-c3cccs3)c(Nc3c(C)cccc3C)n2c1,"inconclusive: 39.8 µM [inhibitor, full curve, poor fit]"
19,CN(Cc1ccccc1)C(=O)COC(=O)c1ccc(S(=O)(=O)N(C)C)cc1,"inconclusive: 100 µM [inhibitor, partial curve, poor fit]"
20,COc1cc2cc(CCCOC(=O)c3ccc(Br)cc3)oc(=O)c2cc1OC,"inconclusive: 35.5 µM [inhibitor, partial curve]"

# Arranged by length of the SMILES (descending): part of the list above
row,SMILES,Potency
1,COc1ccc(-c2noc(-c3nnn4c3COC(c3ccc(C)cc3C)C4)n2)cc1OC (stereo not given),inactive
12,COC(=O)C(Br)(C(=O)OC)C(OC)(C(=O)OC)C(=O)OC,active: 0.708 µM
18,Cc1ccc2nc(-c3cccs3)c(Nc3c(C)cccc3C)n2c1,"inconclusive: 39.8 µM [inhibitor, full curve, poor fit]"
